In patent US20230059690A1:
No constants are given. Whether binding was seen depends on the method and setting. Some results given as binding are weak or reduced against the parent protein; the word gives no strength.

Target: cynomolgus monkey PSMA (cynomolgus monkey)
Experiment: ELISA, Biacore and FACS

B1: cHv75-2a7.G1(C99Y;L328C)k (antibody, V domains shown)
VH: EVQLVESGGGLVQPGGSLRLSCAASGITFSNYWMSWVRQAPGKGLEWVANIKKDGSEKFYVDSVKGRFTISRDNAKNSLYLQINSLRAEDTAMYYCAREIQLYLQHWGQGTLVTVSS
VL: DIQMTQSPSSVSASVGGRVTITCRASQGISNWLAWYQQKPGKAPKLLIYAASSLQSGVPSRFSGSGSGTDFTLTISNLQPEDFASYYCQQANSFPLTFGGGTKVEIKR
binding: binds
